33 molecules from the supplement of paper PMC4604168 (melanoma cell lines) can be followed below.

The list shows a part of the results. Many values rest on one well or one pass, so single values are uncertain.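 Cells were imaged in 1,536-well plates, and nuclei stained with an antibody against cleaved PARP were counted against all DNA-stained nuclei to give the apoptosis fraction. Screening doses were chosen to leave most cells alive, and resting and induced cleaved-PARP levels differ strongly between cell lines.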

The assay concerns MeWo. Briefly: cleaved PARP positive nuclei fraction relative to DMSO control; melanoma cells; higher = more apoptosis. To be noted: library dose: low library concentration; 72 h.
Regarding `C=CCn1c(=O)c2cnc(Nc3ccc(N4CCN(C)CC4)cc3)nc2n1-c1cccc(C(C)(C)O)n1` + CCCCCCCCCCCC1=C(O)C(=O)C=C(O)C1=O [Embelin] (first compound 0.02 µM, partner dose 1.2 µM), the “cleaved PARP positive nuclei fraction” value turned out to be 67.5%.
The result for `Cc1cc(N2CCOCC2)cc2[nH]c(-c3c(NC[C@@H](O)c4cccc(Cl)c4)cc[nH]c3=O)nc12` + COc1ccc(-c2ccc3c(N4CCOCC4)nc(N4C[C@@H](C)O[C@@H](C)C4)nc3n2)cc1CO [KU0063794] (first compound 0.2 µM, partner dose 0.02 µM) reads 40.8%.
As to `COCC[n+]1c2c(n(Cc3cnccn3)c1C)C(=O)c1ccccc1C2=O` + O=C1NC(=O)/C(=C/c2ccc(-c3ccc(F)cc3O)o2)S1 [AS252424] (first compound 0.0004 µM, partner dose 1 µM), the “cleaved PARP positive nuclei fraction” value was 27.1%.
Under `Cn1nnc2c(C(N)=O)ncn2c1=O` [temozolomide] + CCc1ccc(CCOc2ccc(CC3SC(=O)NC3=O)cc2)nc1 [pioglitazone] (first compound 2 µM, partner dose 2 µM) stands 80.8%; under `C#Cc1cccc(Nc2ncnc3cc(OCCOC)c(OCCOC)cc23)c1` [erlotinib] + Oc1cc(-c2nc(-c3ccccc3)[nH]c2-c2ccncc2)ccc1Cl [L779450] (first compound 0.8 µM, partner dose 0.2 µM), 108%; under `Cc1ccc(NC(=O)c2cccc(N(C)C)c2)cc1NC(=O)c1ccc(O)cc1` + CCN(CC)CCCCNc1ncc2cc(-c3cc(OC)cc(OC)c3)c(NC(=O)NC(C)(C)C)nc2n1 [PD173074] (first compound 2 µM, partner dose 0.1 µM), 56.3%.
Under `Cn1cncc1[C@@](N)(c1ccc(Cl)cc1)c1ccc2c(c1)c(-c1cccc(Cl)c1)cc(=O)n2C` [tipifarnib] + CCCCCCCCCCCC1=C(O)C(=O)C=C(O)C1=O [Embelin] (first compound 0.01 µM, partner dose 1.2 µM) stands 47.5%.
The result for `O=C(CCCCCCC(=O)Nc1ccccc1)NO` [vorinostat] + c1cc(-c2cnn3cc(-c4ccc(OCCN5CCCCC5)cc4)cnc23)ccn1 [Dorsomorphin] (first compound 0.08 µM, partner dose 0.4 µM) reads 57.6%; that for `NC(=O)Nc1cc(-c2cccc(F)c2)sc1C(=O)N[C@H]1CCCNC1` + COC(=O)c1sccc1S(=O)(=O)Nc1ccc(Nc2ccccc2)cc1OC [GSK0660] (first compound 0.02 µM, partner dose 1 µM), 52.9%; that for `Cc1nc(Nc2ncc(C(=O)Nc3c(C)cccc3Cl)s2)cc(N2CCN(CCO)CC2)n1` [dasatanib] + Oc1nc(-c2ccc(C(F)(F)F)cc2)nc2c1CSCC2 [XAV939] (first compound 0.004 µM, partner dose 2 µM), 239%.
`Cn1cncc1[C@@](N)(c1ccc(Cl)cc1)c1ccc2c(c1)c(-c1cccc(Cl)c1)cc(=O)n2C` [tipifarnib] + Oc1cc(-c2nc(-c3ccccc3)[nH]c2-c2ccncc2)ccc1Cl [L779450] (first compound 0.01 µM, partner dose 0.2 µM): the “cleaved PARP positive nuclei fraction” value was found to be 58.7%.
Take `O=C(CCCCCCC(=O)Nc1ccccc1)NO` [vorinostat] + COc1ccc(COc2ccc(Cc3cnc(N)nc3N)cc2OC)cc1 [GW2580] (first compound 0.08 µM, partner dose 1 µM): the “cleaved PARP positive nuclei fraction” value stood at 49.9%.
Under `O=C(CCCCCCC(=O)Nc1ccccc1)NO` [vorinostat] + COc1cc(N2CCC(N3CCN(C)CC3)CC2)ccc1Nc1ncc(Cl)c(Nc2ccccc2S(=O)(=O)C(C)C)n1 [NVP-TAE684] (first compound 0.08 µM, partner dose 0.08 µM) stands 52.8%.
Consider `OCCn1cc(-c2cnc3nnn(Cc4ccc5ncccc5c4)c3n2)cn1` + Oc1nc(-c2ccc(C(F)(F)F)cc2)nc2c1CSCC2 [XAV939] (first compound 1 µM, partner dose 2 µM), for which the “cleaved PARP positive nuclei fraction” value amounted to 39.1%.
`Cn1nnc2c(C(N)=O)ncn2c1=O` [temozolomide] + COc1ccc(COc2ccc(Cc3cnc(N)nc3N)cc2OC)cc1 [GW2580] (first compound 2 µM, partner dose 1 µM): the “cleaved PARP positive nuclei fraction” value came to 105%.
Under `C=CCn1c(=O)c2cnc(Nc3ccc(N4CCN(C)CC4)cc3)nc2n1-c1cccc(C(C)(C)O)n1` + COc1ccc(COc2ccc(Cc3cnc(N)nc3N)cc2OC)cc1 [GW2580] (first compound 0.02 µM, partner dose 1 µM) stands 68.2%; under `NC(=O)Nc1cc(-c2cccc(F)c2)sc1C(=O)N[C@H]1CCCNC1` + Cn1cc(/C=C2\C(=O)Nc3cccnc32)c2ccccc21 [GW441756] (first compound 0.02 µM, partner dose 0.4 µM), 156%.
On to `CO[C@@H]1[C@H](N(C)C(=O)c2ccccc2)C[C@H]2O[C@]1(C)n1c3ccccc3c3c4c(c5c6ccccc6n2c5c31)C(=O)NC4` [Midostaurin] + O=C(O)C(=O)Nc1sc2c(c1C(=O)O)CCNC2 [TCS401] (first compound 0.08 µM, partner dose 1.66667 µM), for which the “cleaved PARP positive nuclei fraction” value stood at 51.2%.
Under `C#Cc1cccc(Nc2ncnc3cc(OCCOC)c(OCCOC)cc23)c1` [erlotinib] + COc1cc2ncnc(Nc3ccc(Oc4ccccc4)cc3)c2cc1OC [SrcI1] (first compound 0.8 µM, partner dose 2 µM) stands 59.9%; under `Cn1cncc1[C@@](N)(c1ccc(Cl)cc1)c1ccc2c(c1)c(-c1cccc(Cl)c1)cc(=O)n2C` [tipifarnib] + COc1ccc2c(c1)CCC1C2CCC2(C)C(NCCCCCCN3C(=O)C=CC3=O)CCC12 [U73122] (first compound 0.01 µM, partner dose 0.4 µM), 91.5%.
Under `O=C(Nc1cccc(Cl)c1)Nc1ncc(CCNc2ncnc3ccsc23)s1` + O=C(O)C(=O)Nc1sc2c(c1C(=O)O)CCNC2 [TCS401] (first compound 0.0008 µM, partner dose 1.66667 µM) stands 73.9%; under `C=CCn1c(=O)c2cnc(Nc3ccc(N4CCN(C)CC4)cc3)nc2n1-c1cccc(C(C)(C)O)n1` + O=S(=O)(c1ccccc1)N(CC(F)(F)F)c1ccc(C(O)(C(F)(F)F)C(F)(F)F)cc1 [T0901317] (first compound 0.02 µM, partner dose 1.4 µM), 69.5%.
The result for `CC(C)(C)c1cnc(CSc2cnc(NC(=O)C3CCNCC3)s2)o1` + c1cc(-c2cnn3cc(-c4ccc(OCCN5CCCCC5)cc4)cnc23)ccn1 [Dorsomorphin] (first compound 0.01 µM, partner dose 0.4 µM) reads 50.8%; that for `O=C(CCCCCCC(=O)Nc1ccccc1)NO` [vorinostat] + O=S(=O)(c1ccccc1)N(CC(F)(F)F)c1ccc(C(O)(C(F)(F)F)C(F)(F)F)cc1 [T0901317] (first compound 0.08 µM, partner dose 1.4 µM), 185%.
For the molecule `Cn1c(Nc2ccc(C(F)(F)F)cc2)nc2cc(Oc3ccnc(-c4ncc(C(F)(F)F)[nH]4)c3)ccc21` + COC(=O)c1sccc1S(=O)(=O)Nc1ccc(Nc2ccccc2)cc1OC [GSK0660] (first compound 0.08 µM, partner dose 1 µM), the “cleaved PARP positive nuclei fraction” value worked out at 204%.
In the case of `C#Cc1cccc(Nc2ncnc3cc(OCCOC)c(OCCOC)cc23)c1` [erlotinib] + O=C(Nc1ccccc1)c1cc([N+](=O)[O-])ccc1Cl [GW9662] (first compound 0.8 µM, partner dose 2 µM), the “cleaved PARP positive nuclei fraction” value came to 166%.
As for `Cc1cc(N2CCOCC2)cc2[nH]c(-c3c(NC[C@@H](O)c4cccc(Cl)c4)cc[nH]c3=O)nc12` + O=C(O)C(=O)Nc1sc2c(c1C(=O)O)CCNC2 [TCS401] (first compound 0.2 µM, partner dose 1.66667 µM), the “cleaved PARP positive nuclei fraction” value was found to be 53.7%.
The result for `Nc1cccc2c1CN(C1CCC(=O)NC1=O)C2=O` (stereo not drawn) [lenalidomide] + Oc1nc(-c2ccc(C(F)(F)F)cc2)nc2c1CSCC2 [XAV939] (first compound 1 µM, partner dose 2 µM) reads 25.4%; that for `Cn1c(Nc2ccc(C(F)(F)F)cc2)nc2cc(Oc3ccnc(-c4ncc(C(F)(F)F)[nH]4)c3)ccc21` + COc1ccc(COc2ccc(Cc3cnc(N)nc3N)cc2OC)cc1 [GW2580] (first compound 0.08 µM, partner dose 1 µM), 50.4%; that for `C[C@]1(c2nc3c(C(N)=O)cccc3[nH]2)CCCN1` [Veliparib] + CC(C)CCN1c2nc(Nc3cc(F)c(O)c(F)c3)ncc2N(C)C(=O)C1C [BID1870] (first compound 1.4 µM, partner dose 0.2 µM), 62.8%.
Consider `C=CCn1c(=O)c2cnc(Nc3ccc(N4CCN(C)CC4)cc3)nc2n1-c1cccc(C(C)(C)O)n1` + CCc1ccc(CCOc2ccc(CC3SC(=O)NC3=O)cc2)nc1 [pioglitazone] (first compound 0.02 µM, partner dose 2 µM), for which the “cleaved PARP positive nuclei fraction” value was 140%.
Take `C=CCn1c(=O)c2cnc(Nc3ccc(N4CCN(C)CC4)cc3)nc2n1-c1cccc(C(C)(C)O)n1` + COC(=O)c1sccc1S(=O)(=O)Nc1ccc(Nc2ccccc2)cc1OC [GSK0660] (first compound 0.02 µM, partner dose 1 µM): the “cleaved PARP positive nuclei fraction” value was 61%.
For the molecule `C#Cc1cccc(Nc2ncnc3cc(OCCOC)c(OCCOC)cc23)c1` [erlotinib] + COc1ccc2c(c1)CCC1C2CCC2(C)C(NCCCCCCN3C(=O)C=CC3=O)CCC12 [U73122] (first compound 0.8 µM, partner dose 0.4 µM), the “cleaved PARP positive nuclei fraction” value was 82.6%.
